Experimental data published in article PMC4608832, “Synthesis of New 4-Aminoquinolines and Evaluation of Their In Vitro Activity against Chloroquine-Sensitive and Chloroquine-Resistant Plasmodium falciparum” (PLoS ONE, 2015).

System: P. falciparum Dd2
Experiment: In vitro antiplasmodial activity, 3H-hypoxanthine incorporation, strain Dd2
Type: cell-based, Plasmodium falciparum
Details: RI = IC50 Dd2/IC50 3D7

Structure (SMILES) | Resistance Index Dd2/3D7 (laboratory B) | Resistance Index Dd2/3D7 (laboratory A)
CCN(CC)Cc1cc(Nc2ccnc3cc(Cl)ccc23)ccc1O [AQ, amodiaquine, reference compound] | 0.9 | –
CCN(CC)Cc1ccccc1CNc1ccnc2cc(Cl)ccc12 [Compound 1, 7-Chloro-N-(2-((diethylamino)methyl)benzyl)quinolin-4-amine] | 0.9 | 1.6
CCN(CC)Cc1cccc(CNc2ccnc3cc(Cl)ccc23)c1 [Compound 2, 7-Chloro-N-(3-((diethylamino)methyl)benzyl)quinolin-4-amine] | 1.0 | 1.4
CCN(CC)Cc1ccc(CNc2ccnc3cc(Cl)ccc23)cc1 [Compound 3, 7-Chloro-N-(4-((diethylamino)methyl)benzyl)quinolin-4-amine] | 1.1 | 1.8
CCN(CC)Cc1ccc(-c2ccc(CNc3ccnc4cc(Cl)ccc34)cc2)cc1 [Compound 4, 7-Chloro-N-((4’-((diethylamino)methyl)-[1,1’-biphenyl]-4-yl)methyl)quinolin-4-amine] | 1.1 | 1.4
